AC50 data for 15 compounds are collected here from PubChem BioAssay AID1487 (National Center for Advancing Translational Sciences (NCATS), 2009).

The experiment in a line: qHTS Assay for Modulators of Lamin A Splicing. Particulars: HeLa LMNA splicing GFP/RFP minigene ratio, 48 h. The gist of the method:
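S3 HeLa cells stably expressing lamin A-EGFP splicing minigene plus DsRed2, 600 cells/well, 48 h compound exposure at 37C. Laser-scanning cytometry; analysed as GFP (500-530 nm)/RFP (575-640 nm) total intensity ratio; 0.5% DMSO vehicle.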
For orientation: In qHTS, concentration-response curves come from the screen itself.

[1] abbreviates: measured here: RFP viability control channel.
The mark [2] stands for this setting: measured here: GFP splicing reporter channel.

Structures are written as SMILES. Where “and” joins values, the source holds several entries; their conditions need not be identical. Identical values can stand only once. The list shows a part of the results. The main result of the screen is listed elsewhere. These columns were measured beside it and carry no call. Compounds called inactive in the main read-out are mostly missing here. Potencies come from curve fits of mixed quality, noted in brackets.

The term AC50 denotes the concentration at which the activity in the assay is half-maximal. With `CN(C)C(=O)CCCc1nc(-c2ccc(Cl)cc2)no1`, under setting [1], the AC50 is 17.8 µM [rising, single point].

In the case of `CCn1c2ccccc2c2nnc(NN)nc21`, the AC50 under setting [2] is 35.5 µM [falling, single point].

Regarding `Cc1oc(=O)c(NC(=O)c2ccccc2)cc1C(=O)c1ccccc1`, the AC50 under setting [2] is 35.5 µM [falling, single point].

As to `Cc1ccc(-c2cc(C(=O)NCCCn3ccnc3)no2)cc1`, the AC50 under setting [2] was 3.16 µM [falling, partial curve] and the AC50 under setting [1] is 7.94 µM [falling, partial curve, poor fit].

Turning to `N/C(=N\OC(=O)COc1ccc(Cl)cc1Cl)c1ccncc1`, the AC50 under setting [1] was 0.0794 µM [falling, full curve, poor fit].

On to `CC(C)C(NC(=O)c1ccc(C(C)(C)C)cc1)C(=O)OCC(=O)NC(=O)Cc1ccccc1` (centres undefined), for which the AC50 under setting [2] is 35.5 µM [rising, single point].

Turning to `Cc1cc(C(=O)Cn2nc(C(=O)O)c3ccccc3c2=O)c(C)n1-c1ccccc1`, the AC50 under setting [1] is 12.6 µM [rising, single point].

With `Nc1nc(Cl)nc2c1ncn2[C@H]1C[C@H](O)[C@@H](CO)O1`, the AC50 was 22.4 nM [falling, full curve, poor fit] and 70.8 nM [falling, full curve] and 7.94 nM [falling, full curve, poor fit] under setting [2]; 708 nM [rising, full curve] and 794 nM [rising, full curve] under setting [1].

Take `CC1CCCCC1n1c(=S)[nH]c2ccccc2c1=O` (centres undefined): the half-maximal activity concentration (AC50) under setting [1] was 31.6 µM [rising, single point].

For `Cc1cccc(N(CC(=O)NC(C)(C)C)C(=O)CNC(=O)c2cccs2)c1`, the AC50 under setting [1] is 1.26 µM [rising, full curve, poor fit].

With `CC(NC(=O)C1CCN(C(=O)N2CCOc3ccc(Cl)cc32)CC1)c1ccccc1` (centres undefined), under setting [1], the AC50 was 35.5 µM [rising, single point].

Turning to `Cn1c(N2CCCCC2)nc2c1c(=O)n(Cc1cccc(Br)c1)c(=O)n2C`, the concentration at half-maximal activity (AC50) under setting [2] is 8.91 µM [rising, partial curve] and the AC50 under setting [1] is 5.01 µM [rising, partial curve].

As to `Cc1ccc(-n2nc3ccc(NC(=O)/C=C/c4ccco4)cc3n2)cc1C`, the half-maximal activity concentration (AC50) under setting [1] is 25.1 µM [falling, single point].

Regarding `CC(C)(C)C1CCc2c(sc(N)c2C(N)=O)C1` (centres undefined), under setting [1], the AC50 was 35.5 µM [rising, single point].

In the case of `NNC(=O)/C(=C\c1ccc(Br)cc1)NC(=O)c1cccs1`, the AC50 under setting [2] was 2.82 µM [falling, single point] and the AC50 under setting [1] is 0.01 µM [falling, full curve, poor fit].
